# According to the supplement of paper PMC11438910:
# The other results are listed elsewhere or left out. Most of these values are background signal.
# B1: 4-173.1 (protein)
# chain 1: QLQLQESGPGLVKPSETLSLTCAVSGASISSNYWSWIRQAPGKGLEWIGRISGSSGSTDYNPSLKSRVTISTDTSKNQFSLKLNSVTAADTAVYYCARVSYWGHYGDYWGQGVLVTVSS
# chain 2: QPVLTQPSSHSASPGAPARLTCTLSSGFSVGDFWIRWYQQKPGSPPRYLLYYHSDSDKHQGSGVPSRFSGSNDASANAGILHISGLQPEDEADYYCCTWHGNSKTQIFGAGTRLTVL
# B2: 4-127.3 (protein)
# chain 1: QVQLQESGPGLVKPSETLSLTCAVSGYSISSGYGWSWIRQPPGKGLEWIGYIGGSSGSTNYNPSLKSRVTVSKDTSKNQFSLKLSSVTAADTAVYYCARADYCTSTTCYGPNRFDVWGPGVLVTVSS
# chain 2: QAAPTQSPSVSGSAGQSVTISCTGSSSDIGYYNGVSWYQHHPGKAPKLMIYEVSKRPSGVSNRFSGSKSGNTASLTISGLQAADEADYFCSSYAGSGTYIFGAGTRLTVL
# What was measured:
# Assay in all cases: fluorescence intensity of antibody binding to polysaccharide-coupled beads; higher = stronger binding
# [1] = biological target: pneumococcal polysaccharide Pn8
# Description: (§1)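 Recombinant rhesus-murine chimeric IgG1 antibodies were tested against antigen-coupled MagPlex beads in a 96-plex Luminex direct immunoassay (dLIA). The beads carried pneumococcal capsular polysaccharides of 93 serotypes plus C-polysaccharides. Antibody was added at 0.1–12,500 ng/mL for 1 h, then PE anti-mouse IgG, and net MFI was read on a Bio-Plex 3D. Only the rhesus variable regions are printed; constant regions are murine IgG1/kappa/lambda, and the signal peptide is MGWSCIILFLVATATGVHS.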
# [2] = biological target: pneumococcal polysaccharide Pn9A
# Description: as §1
# [3] = biological target: pneumococcal polysaccharide Pn9L
# Description: as §1
# [4] = biological target: pneumococcal polysaccharide Pn9N
# Description: as §1
# [5] = biological target: pneumococcal polysaccharide Pn9V
# Description: as §1
# [6] = biological target: pneumococcal polysaccharide C-Poly-1
# Description: as §1
# [7] = biological target: pneumococcal polysaccharide C-Poly-2
# Description: as §1
# [8] = biological target: pneumococcal polysaccharide Pn1
# Description: as §1
# [9] = biological target: pneumococcal polysaccharide Pn10A
# Description: as §1
# [10] = biological target: pneumococcal polysaccharide Pn10B
# Description: as §1
# [11] = biological target: pneumococcal polysaccharide Pn10C
# Description: as §1
# [12] = biological target: pneumococcal polysaccharide Pn10F
# Description: as §1
# [13] = biological target: pneumococcal polysaccharide Pn11A
# Description: as §1
# [14] = biological target: pneumococcal polysaccharide Pn11B
# Description: as §1
# [15] = biological target: pneumococcal polysaccharide Pn11C
# Description: as §1
# [16] = biological target: pneumococcal polysaccharide Pn11D
# Description: as §1
# [17] = biological target: pneumococcal polysaccharide Pn11F
# Description: as §1
# [18] = biological target: pneumococcal polysaccharide Pn12A
# Description: as §1
# [19] = biological target: pneumococcal polysaccharide Pn12B
# Description: as §1
# [20] = biological target: pneumococcal polysaccharide Pn12F
# Description: as §1
# [21] = antibody concentration 0.1 ng/mL
# [22] = antibody concentration 0.534724 ng/mL
# [23] = antibody concentration 2.8593 ng/mL
# [24] = antibody concentration 15.2894 ng/mL
# [25] = antibody concentration 81.7561 ng/mL
# [26] = antibody concentration 437.17 ng/mL
# [27] = antibody concentration 2337.65 ng/mL
# [28] = antibody concentration 12500 ng/mL
binder,measurement,setting,value
B1,fluorescence intensity,[1]; [21],22.5 MFI
same,fluorescence intensity,[1]; [22],22.5 MFI
same,fluorescence intensity,[1]; [23],22.5 MFI
same,fluorescence intensity,[1]; [24],22.5 MFI
same,fluorescence intensity,[1]; [25],22 MFI
same,fluorescence intensity,[1]; [26],24 MFI
same,fluorescence intensity,[1]; [27],28.5 MFI
same,fluorescence intensity,[1]; [28],34.5 MFI
same,fluorescence intensity,[2]; [21],20 MFI
same,fluorescence intensity,[2]; [22],21 MFI
same,fluorescence intensity,[2]; [23],19.5 MFI
same,fluorescence intensity,[2]; [24],18.5 MFI
same,fluorescence intensity,[2]; [25],19.5 MFI
same,fluorescence intensity,[2]; [26],19.5 MFI
same,fluorescence intensity,[2]; [27],21 MFI
same,fluorescence intensity,[2]; [28],32 MFI
same,fluorescence intensity,[3]; [21],18.5 MFI
same,fluorescence intensity,[3]; [22],18.5 MFI
same,fluorescence intensity,[3]; [23],19.5 MFI
same,fluorescence intensity,[3]; [24],17 MFI
same,fluorescence intensity,[3]; [25],19.5 MFI
same,fluorescence intensity,[3]; [26],16.5 MFI
same,fluorescence intensity,[3]; [27],19.5 MFI
same,fluorescence intensity,[3]; [28],25.5 MFI
same,fluorescence intensity,[4]; [21],17 MFI
same,fluorescence intensity,[4]; [22],16 MFI
same,fluorescence intensity,[4]; [23],16 MFI
same,fluorescence intensity,[4]; [24],17.8 MFI
same,fluorescence intensity,[4]; [25],16.5 MFI
same,fluorescence intensity,[4]; [26],16.5 MFI
same,fluorescence intensity,[4]; [27],18.5 MFI
same,fluorescence intensity,[4]; [28],26 MFI
same,fluorescence intensity,[5]; [21],15 MFI
same,fluorescence intensity,[5]; [22],15.5 MFI
same,fluorescence intensity,[5]; [23],15 MFI
same,fluorescence intensity,[5]; [24],16 MFI
same,fluorescence intensity,[5]; [25],15.2 MFI
same,fluorescence intensity,[5]; [26],15 MFI
same,fluorescence intensity,[5]; [27],16.5 MFI
same,fluorescence intensity,[5]; [28],22 MFI
B2,fluorescence intensity,[6]; [21],27.2 MFI
same,fluorescence intensity,[6]; [22],27.2 MFI
same,fluorescence intensity,[6]; [23],26.2 MFI
same,fluorescence intensity,[6]; [24],28.5 MFI
same,fluorescence intensity,[6]; [25],26.2 MFI
same,fluorescence intensity,[6]; [26],30.5 MFI
same,fluorescence intensity,[6]; [27],37.2 MFI
same,fluorescence intensity,[6]; [28],106 MFI
same,fluorescence intensity,[7]; [21],21.5 MFI
same,fluorescence intensity,[7]; [22],20.5 MFI
same,fluorescence intensity,[7]; [23],22 MFI
same,fluorescence intensity,[7]; [24],22 MFI
same,fluorescence intensity,[7]; [25],21.5 MFI
same,fluorescence intensity,[7]; [26],24.2 MFI
same,fluorescence intensity,[7]; [27],31.8 MFI
same,fluorescence intensity,[7]; [28],95.5 MFI
same,fluorescence intensity,[8]; [21],14.5 MFI
same,fluorescence intensity,[8]; [22],12.5 MFI
same,fluorescence intensity,[8]; [23],14 MFI
same,fluorescence intensity,[8]; [24],15 MFI
same,fluorescence intensity,[8]; [25],14.5 MFI
same,fluorescence intensity,[8]; [26],14.5 MFI
same,fluorescence intensity,[8]; [27],17.5 MFI
same,fluorescence intensity,[8]; [28],34.5 MFI
same,fluorescence intensity,[9]; [21],28 MFI
same,fluorescence intensity,[9]; [22],25.5 MFI
same,fluorescence intensity,[9]; [23],25.5 MFI
same,fluorescence intensity,[9]; [24],27.5 MFI
same,fluorescence intensity,[9]; [25],27 MFI
same,fluorescence intensity,[9]; [26],26.5 MFI
same,fluorescence intensity,[9]; [27],28.5 MFI
same,fluorescence intensity,[9]; [28],36.5 MFI
same,fluorescence intensity,[10]; [21],24.2 MFI
same,fluorescence intensity,[10]; [22],25 MFI
same,fluorescence intensity,[10]; [23],24.5 MFI
same,fluorescence intensity,[10]; [24],22 MFI
same,fluorescence intensity,[10]; [25],26 MFI
same,fluorescence intensity,[10]; [26],23.5 MFI
same,fluorescence intensity,[10]; [27],25.5 MFI
same,fluorescence intensity,[10]; [28],31.5 MFI
same,fluorescence intensity,[11]; [21],16 MFI
same,fluorescence intensity,[11]; [22],17.8 MFI
same,fluorescence intensity,[11]; [23],18.8 MFI
same,fluorescence intensity,[11]; [24],18 MFI
same,fluorescence intensity,[11]; [25],16.5 MFI
same,fluorescence intensity,[11]; [26],17.5 MFI
same,fluorescence intensity,[11]; [27],18.5 MFI
same,fluorescence intensity,[11]; [28],23.5 MFI
same,fluorescence intensity,[12]; [21],20.8 MFI
same,fluorescence intensity,[12]; [22],19.5 MFI
same,fluorescence intensity,[12]; [23],21.5 MFI
same,fluorescence intensity,[12]; [24],20.5 MFI
same,fluorescence intensity,[12]; [25],20 MFI
same,fluorescence intensity,[12]; [26],20 MFI
same,fluorescence intensity,[12]; [27],21.2 MFI
same,fluorescence intensity,[12]; [28],23.5 MFI
same,fluorescence intensity,[13]; [21],30.8 MFI
same,fluorescence intensity,[13]; [22],30.8 MFI
same,fluorescence intensity,[13]; [23],30.2 MFI
same,fluorescence intensity,[13]; [24],26.5 MFI
same,fluorescence intensity,[13]; [25],29 MFI
same,fluorescence intensity,[13]; [26],31.5 MFI
same,fluorescence intensity,[13]; [27],36 MFI
same,fluorescence intensity,[13]; [28],46.8 MFI
same,fluorescence intensity,[14]; [21],25 MFI
same,fluorescence intensity,[14]; [22],26 MFI
same,fluorescence intensity,[14]; [23],27.2 MFI
same,fluorescence intensity,[14]; [24],27.8 MFI
same,fluorescence intensity,[14]; [25],26.8 MFI
same,fluorescence intensity,[14]; [26],29 MFI
same,fluorescence intensity,[14]; [27],32 MFI
same,fluorescence intensity,[14]; [28],34.5 MFI
same,fluorescence intensity,[15]; [21],24.5 MFI
same,fluorescence intensity,[15]; [22],21.5 MFI
same,fluorescence intensity,[15]; [23],22.5 MFI
same,fluorescence intensity,[15]; [24],23 MFI
same,fluorescence intensity,[15]; [25],22.5 MFI
same,fluorescence intensity,[15]; [26],23.5 MFI
same,fluorescence intensity,[15]; [27],30.5 MFI
same,fluorescence intensity,[15]; [28],88 MFI
same,fluorescence intensity,[16]; [21],23.8 MFI
same,fluorescence intensity,[16]; [22],24 MFI
same,fluorescence intensity,[16]; [23],22.5 MFI
same,fluorescence intensity,[16]; [24],23 MFI
same,fluorescence intensity,[16]; [25],23.8 MFI
same,fluorescence intensity,[16]; [26],24 MFI
same,fluorescence intensity,[16]; [27],27 MFI
same,fluorescence intensity,[16]; [28],54.5 MFI
same,fluorescence intensity,[17]; [21],14.5 MFI
same,fluorescence intensity,[17]; [22],14.5 MFI
same,fluorescence intensity,[17]; [23],14.2 MFI
same,fluorescence intensity,[17]; [24],15.5 MFI
same,fluorescence intensity,[17]; [25],16 MFI
same,fluorescence intensity,[17]; [26],15.8 MFI
same,fluorescence intensity,[17]; [27],16.2 MFI
same,fluorescence intensity,[17]; [28],22.5 MFI
same,fluorescence intensity,[18]; [21],16.5 MFI
same,fluorescence intensity,[18]; [22],16.5 MFI
same,fluorescence intensity,[18]; [23],14.8 MFI
same,fluorescence intensity,[18]; [24],15.2 MFI
same,fluorescence intensity,[18]; [25],15.5 MFI
same,fluorescence intensity,[18]; [26],16 MFI
same,fluorescence intensity,[18]; [27],17.5 MFI
same,fluorescence intensity,[18]; [28],29.5 MFI
same,fluorescence intensity,[19]; [21],18 MFI
same,fluorescence intensity,[19]; [22],16 MFI
same,fluorescence intensity,[19]; [23],16 MFI
same,fluorescence intensity,[19]; [24],15.8 MFI
same,fluorescence intensity,[19]; [25],16 MFI
same,fluorescence intensity,[19]; [26],17 MFI
same,fluorescence intensity,[19]; [27],18 MFI
same,fluorescence intensity,[19]; [28],28 MFI
same,fluorescence intensity,[20]; [21],19.5 MFI
same,fluorescence intensity,[20]; [22],19.5 MFI
same,fluorescence intensity,[20]; [23],19.2 MFI
same,fluorescence intensity,[20]; [24],20.8 MFI
same,fluorescence intensity,[20]; [25],19.5 MFI
same,fluorescence intensity,[20]; [26],21 MFI
same,fluorescence intensity,[20]; [27],21.5 MFI
same,fluorescence intensity,[20]; [28],39 MFI

# 3 neighbouring entries from above, quoted:
binder,measurement,setting,value
B1,fluorescence intensity,[2]; [21],20 MFI
same,fluorescence intensity,[2]; [22],21 MFI
same,fluorescence intensity,[2]; [23],19.5 MFI

# An excerpt of these results, with tabs.
binder	measurement	setting	value
B2	fluorescence intensity	[12]; [22]	19.5 MFI
same	fluorescence intensity	[12]; [23]	21.5 MFI
same	fluorescence intensity	[12]; [24]	20.5 MFI

# Reformatted: entries from further up.
binder	measurement	setting	value
B1	fluorescence intensity	[3]; [27]	19.5 MFI
same	fluorescence intensity	[3]; [28]	25.5 MFI
same	fluorescence intensity	[4]; [21]	17 MFI
same	fluorescence intensity	[4]; [22]	16 MFI
